Among the data in paper PMC10604625 are binding values, retold here.

No constants are given. Whether binding was seen depends on the method and setting. A result given as binding can be weak or reduced; the word gives no strength. Tags and fused reporters may be left off the sequences shown.

The target of experiment [1] is glycine-alanine dipeptide repeat protein GA50, yeast two-hybrid fusion (human). The experiment is described as follows: two-hybrid; yeast two-hybrid-based growth assay: diploid yeast in broth with serially diluted irisflorentin (IFT, up to 100 uM), spot assay on non-selective (SD/-Leu/-Trp) or selective (SD/-Ade/-His/-Leu/-Trp) plates, 30 C, 3 days, and OD600 in broth every 12 h for 48 h.

Experiment [2] has the same target. The experiment is described as follows: two-hybrid; Matchmaker GAL4 direct test: GA50 and SQOR (full length or fragments S1, S2, S3) in pGBKT7 or pGADT7, AH109 and Y187 mated; blue colonies on selective plates.

B1: SQOR fragment S3 (301-450), yeast two-hybrid fusion (domain or fragment, UniProt Q9Y6N5 301-450)
chain: PDVLKTSPVADAAGWVDVDKETLQHRRYPNVFGIGDCTNLPTSKTAAAVAAQSGILDRTISVIMKNQTPTKKYDGYTSCPLVTGYNRVILAEFDYKAEPLETFPFDQSKERLSMYLMKADLMPFLYWNMMLRGYWGGPAFLRKLFHLGMS
For B1, the binding result in experiment [1] and in experiment [2] was “binds” in each case.

B2: SQOR fragment S1 (1-150), yeast two-hybrid fusion (domain or fragment, UniProt Q9Y6N5 1-150)
chain: MVPLVAVVSGPRAQLFACLLRLGTQQVGPLQLHTGASHAARNHYEVLVLGGGSGGITMAARMKRKVGAENVAIVEPSERHFYQPIWTLVGAGAKQLSSSGRPTASVIPSGVEWIKARVTELNPDKNCIHTDDDEKISYRYLIIALGIQLD
Take B2: in experiment [2], the binding entry is listed as “no binding”.

B3: SQOR fragment S2 (151-300), yeast two-hybrid fusion (domain or fragment, UniProt Q9Y6N5 151-300)
chain: YEKIKGLPEGFAHPKIGSNYSVKTVEKTWKALQDFKEGNAIFTFPNTPVKCAGAPQKIMYLSEAYFRKTGKRSKANIIFNTSLGAIFGVKKYADALQEIIQERNLTVNYKKNLIEVRADKQEAVFENLDKPGETQVISYEMLHVTPPMSP
In the case of B3, the binding result in experiment [2] was “no binding”.
